Assays:
[1] = AlphaScreen biotin-His6 counterscreen; conditions: AlphaScreen interference counterscreen with biotin-His6; unit inferred; DNC = data did not converge to binding model; NM = not measurable within the solubility range
KDM7A (PHD-JmjC) = test: MALDI-TOF MS H3K9me2 demethylation assay, KDM7A(PHD-JmjC); format: biochemical, human; conditions: at 100 µM, substrate H3(1–15)K9me2
Protocol: H3(1–15)K9me2 and H3(1–5)K4me3K9me2 were used as substrates for KDM7A(PHD-JmjC) and KDM7B(PHD-JmjC), respectively. […] For KDM7B(PHD-JmjC), inhibition was most pronounced for 1a (95%) and 2a (89%) whilst others inhibited more weakly (Table 4).
For KDM7(PHD-JmjC) assays, 2.5 µM enzyme was used, with 5 µM H3(1-15)K9me2 peptide substrate for KDM7A or H3(1-15)K4me3K9me2 for KDM7B. Final concentrations were: 1mM ascorbate, 50 µM (NH4)2Fe(II)(SO4)2 and 200 µM 2OG. The mixture was quenched using formic acid after 10 minutes (KDM7A) or 5 minutes (KDM7B).

In the case of CCCCc1oc2ccccc2c1C(=O)c1cc(I)c(OCCN(CC)CC)c(I)c1 [AMI, amiodarone, reference compound], the IC50 [1] is reported as 178 ± 58 µM and the “KDM7A (PHD-JmjC) (Catalytic), inhibition of H3K9me2 demethylation” value (KDM7A (PHD-JmjC)) is reported as 83% (100 µM).

Reference: PMC6380468, “Investigations on small molecule inhibitors targeting the histone H3K4 tri-methyllysine binding PHD-finger of JmjC histone demethylases” (Bioorganic & Medicinal Chemistry, 2018)
